Laboratory results: PubChem BioAssay AID504834 (National Center for Advancing Translational Sciences (NCATS), 2011)
Among all 320,000 compounds or so, about 22,000 (6.9%) were called active. The inconclusive results got no clear call from the source; some entries with a clear call stand among them for comparison. The call rests on the fitted dose curve; in most records, active means well fitted inhibition curve with a large enough effect; inconclusive means small, poorly fitted or top-dose-only effect, or another doubt; inactive means no such curve, though single readings can be large or run the other way. A potency beside an inconclusive call is a rough fit, not a confirmed value.
On the % scale 0 is the no-effect control and ±100 the full control effect; potency means the concentration at half of the fitted maximal effect.

Test: Primary qHTS for delayed death inhibitors of the malarial parasite plastid, 96 hour incubation
Conditions: P. falciparum luciferase reporter growth; series mostly up to 28.7 µM
How it was run: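 96 h incubation, 37 C, 5% CO2, of luciferase-reporter P. falciparum-infected RBCs (2% hematocrit, 0.05% parasitemia final) with test compounds; endpoint luminescence.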
For `COc1cc(C2c3c(-c4cc(C)cc(C)c4O)n[nH]c3C(=O)N2CCCO)cc(OC)c1OC` (stereo unspecified), the activity change, negative = inhibition was inactive: -3% [at 5.75 µM].
In the case of `CCCCN(C)C(=O)CCCc1c[nH]c2ccccc12`, the Potency is reported as “inactive”.
With `CCOC(=O)COc1ccc(S(=O)(=O)NC2CC2)cc1` the Potency was inconclusive: 11.7 µM [inhibitor, single point].
For `CC(=O)Oc1cccc(N2C(=O)c3ccc(C(=O)O)cc3C2=O)c1`, the Potency was inconclusive: 18.5 µM [inhibitor, single point].
With `Cc1ccc(/C=C/C(=O)Nc2cccc(S(=O)(=O)N3CCOCC3)c2)o1` the Potency was inconclusive: 16.5 µM [inhibitor, single point].
In the case of `CC(NC(=O)C(=O)N1CCOCC1)C(c1cccs1)N1CCN(c2ccccc2F)CC1` (stereo unspecified), the Potency is reported as inconclusive: 10.4 µM [inhibitor, single point].
With `CCN(CC)S(=O)(=O)c1ccc(N2CCOCC2)c(NC(=O)CCC2CCCCC2)c1` the Potency was inconclusive: 1.47 µM [inhibitor, partial curve, poor fit].
In the case of `COc1ccc(NC(=O)c2cc(OC)c(OC)c(OC)c2)cc1S(=O)(=O)N1CCCCC1`, the Potency is reported as inconclusive: 10.4 µM [inhibitor, partial curve].
For `CC(C)(CO)N=Cc1c(O)[nH]c2ccccc12`, the Potency was inconclusive: 0.0329 µM [inhibitor, full curve, poor fit].
In the case of `COc1cc2c(=O)n(CCC(=O)NCC3CCCO3)c(=O)n(CC(=O)Nc3ccc(F)cc3)c2cc1OC` (stereo unspecified), the Potency is reported as inconclusive: 10.4 µM [inhibitor, single point].
For `NC(=O)CC(NC(=O)Cc1ccc(Br)cc1)c1ccc(N2CCN(c3ccc(F)cc3)CC2)c([N+](=O)[O-])c1` (stereo unspecified), the Potency was inconclusive: 16.5 µM [inhibitor, single point].
In the case of `CC(=O)c1ccc(-c2ccc(C(=O)NCC(c3ccc(F)cc3)N3CCOCC3)o2)cc1` (stereo unspecified), the Potency is reported as inconclusive: 18.5 µM [inhibitor, single point].
For `COc1ccccc1/C=C/C(=O)OCC(=O)Nc1c(C)nn(-c2ccccc2)c1C`, the Potency was inconclusive: 18.5 µM [inhibitor, single point].
For `CCSc1nc2c(c(=O)[nH]1)C(c1ccncc1)C(C(=O)OC(C)C)=C(C)N2` (stereo unspecified), the Potency was active: 10.4 µM.
With `Cc1ccc(Cl)cc1C1=CC(=O)C[C@H](c2ccc(F)cc2)C1` the Potency was inconclusive: 16.5 µM [inhibitor, single point].
With `COc1cc2ncnc(NCc3ccc(F)cc3)c2cc1OC` the Potency was active: 10.4 µM.
With `O=C(Nc1cc(Sc2nc3ccccc3s2)cc([N+](=O)[O-])c1)c1ccccc1` the Potency was inconclusive: 5.22 µM [inhibitor, partial curve, poor fit].
With `Cc1c(C(=O)NCc2ccc3c(c2)OCO3)oc2ccc(S(=O)(=O)N3CCCC3)cc12` the Potency was inconclusive: 1.31 µM [inhibitor, partial curve, poor fit].
In the case of `Cc1ccc(C23CC4CC(CC(C(=O)NC(C)C(=O)O)(C4)C2)C3)cc1` (stereo unspecified), the Potency is reported as “inactive”.
With `CCN(CC)NC(=S)Nc1ccccc1` the Potency was inconclusive: 18.5 µM [inhibitor, single point].
With `CC(=O)c1ccc(S(=O)(=O)NCCCC(=O)NCCc2ccccn2)cc1` the Potency was inconclusive: 6.57 µM [inhibitor, partial curve].
For `O=C(N/N=C/c1cccc(F)c1)c1csc2c1CCCC2`, the Potency was “inactive”.
In the case of `COc1ccc(-c2c(C#Cc3ccsc3)c3ccccc3n2C)cc1`, the Potency is reported as active: 3.29 µM.
In the case of `CC1CC(C)CN(C/C=C/c2ccccc2[N+](=O)[O-])C1` (stereo unspecified), the Potency is reported as inconclusive: 18.5 µM [inhibitor, single point].
With `CC1(OC(=O)C2CCCC2)C(=O)C=C2C=C(c3ccsc3)N(C3CCCCC3)C=C2C1=O` (stereo unspecified) the Potency was inconclusive: 18.5 µM [inhibitor, single point].
In the case of `CC(=NC1CCCCC1)C1=C(O)c2ccccc2C1=O`, the Potency is reported as inconclusive: 18.5 µM [inhibitor, single point].
With `Clc1ccc(-c2nn3c(-c4ccccc4)nnc3s2)cc1` the Potency was inconclusive: 10.4 µM [inhibitor, single point].
In the case of `CN(C(=O)c1ccc2c(c1)OCO2)C1(C(=O)NC2CCCCC2)CCCCC1`, the Potency is reported as inconclusive: 11.7 µM [inhibitor, partial curve].
In the case of `Cc1cc(C)c(C(=O)N2CCCC(C(=O)c3cc(F)ccc3F)C2)o1` (stereo unspecified), the Potency is reported as inconclusive: 18.5 µM [inhibitor, partial curve, poor fit].
For `C=CCn1c(SCC(=O)Nc2ccc(N3CCOCC3)cc2)nnc1-c1ccco1`, the Potency was “inactive”.
For `CC#CCN1c2ccccc2[C@]23C[C@@H](C(=O)OC)N(C(C)=O)C2=NC(C(=O)OC)=C(C(=O)OC)[C@H]13`, the Potency was inconclusive: 2.08 µM [inhibitor, partial curve, poor fit].
In the case of `COc1ccc(/C=C2/SC(=S)N(Cc3ccccc3)C2=O)cc1O`, the Potency is reported as inconclusive: 1.65 µM [inhibitor, full curve, poor fit].
In the case of `CC(C)Cc1ccc(C(C)C(N)=NCCc2ccccc2)cc1` (stereo unspecified), the Potency is reported as inconclusive: 14.7 µM [inhibitor, partial curve, poor fit].
For `Cc1ccc(SCCNC(=S)Nc2ccc(C)c(C)c2)cc1`, the Potency was “inactive”.
With `Cc1ccc(/C=C2/C(=O)c3ccc(C(=O)O)cc3C2=O)o1` the Potency was active: 8.28 µM.
For `Cc1cccc(C)c1NC(=O)CN(C)C(=O)c1cccc(S(=O)(=O)N2CCN(c3ccc(F)cc3)CC2)c1`, the Potency was inconclusive: 18.5 µM [inhibitor, partial curve, poor fit].
In the case of `OCCC1CN(Cc2ccc(F)cc2)CCN1CCCc1ccccc1` (stereo unspecified), the Potency is reported as inconclusive: 18.5 µM [inhibitor, single point].
For `CCCCSc1nc(O)c(C2OC(=O)c3c2ccc(OC)c3OC)c(=O)n1-c1ccccc1` (stereo unspecified), the Potency was “inactive”.
For `O=C(CSc1n[nH]c(-c2cccs2)n1)NCc1ccc2c(c1)OCO2`, the Potency was inconclusive: 14.7 µM [inhibitor, partial curve, poor fit].
In the case of `Cn1c(=O)c2cc(S(=O)(=O)NC(C(=O)Nc3cccc(F)c3)c3ccccc3)ccc2n(C)c1=O` (stereo unspecified), the Potency is reported as inconclusive: 18.5 µM [inhibitor, single point].
In the case of `Cc1ccc(C(=O)NCCc2csc(-c3cccnc3)n2)cc1`, the Potency is reported as inconclusive: 13.1 µM [inhibitor, partial curve].
In the case of `CCN(CC)c1ccc(/C=N/NC(=O)CC(C)C)cc1`, the Potency is reported as inconclusive: 11.7 µM [inhibitor, partial curve].
For `O=C(CCCn1c(=O)[nH]c2cc(Cl)ccc2c1=O)NCCC1=CCCCC1`, the Potency was inconclusive: 14.7 µM [inhibitor, partial curve, poor fit].
For `Cc1ccc(C(=O)N/C(=C\c2ccc(C(C)C)cc2)C(=O)NCCCN2CCOCC2)cc1`, the Potency was inconclusive: 16.5 µM [inhibitor, single point].
For `Cc1ccc(S(=O)(=O)NCCC(=O)OCC(=O)N(C)c2ccccc2)cc1`, the Potency was inconclusive: 18.5 µM [inhibitor, single point].
With `COc1cc(C(=O)OCC(=O)NC2CCCCCC2)ccc1OCC(C)C` the Potency was “inactive”.
With `CCOCCCN(C(=O)Cn1nnc(-c2ccc(C)o2)n1)C(C(=O)NC1CCCC1)c1ccc(C)o1` (stereo unspecified) the Potency was inconclusive: 18.5 µM [inhibitor, single point].
With `COC(=O)c1c(NC(=O)/C=C/C(=O)O)sc(C)c1-c1ccc(C)c(C)c1` the Potency was inconclusive: 18.5 µM [inhibitor, single point].
For `Cc1cc(NS(=O)(=O)c2ccc(C3CCCCC3)cc2)no1`, the Potency was inconclusive: 10.4 µM [inhibitor, single point].
With `Cn1ccnc1SCC(=O)c1ccc(O)cc1` the Potency was “inactive”.
With `Cc1ccc(C(=O)Cn2nnc3ccccc32)cc1` the Potency was active: 11.7 µM.
With `CCC(=O)NC(c1ccc([N+](=O)[O-])cc1)c1c(O)ccc2ccccc12` (stereo unspecified) the Potency was inconclusive: 0.131 µM [inhibitor, full curve, poor fit].
With `CC1CCN(CC(=O)Nc2ccc3c(c2)OCO3)CC1` the Potency was “inactive”.
In the case of `Cc1oc(-c2cc(F)cc(F)c2)nc1CN1CCN(C(=O)c2ccco2)CC1`, the Potency is reported as inconclusive: 4.15 µM [inhibitor, partial curve, poor fit].
With `COc1ccc(C(c2nnnn2C2CCCC2)N2CCC(C)CC2)c(OC)c1` (stereo unspecified) the Potency was “inactive”.
In the case of `O=C(NCC1CCCO1)C(c1ccncc1)N(Cc1cccs1)C(=O)Cn1nnc(-c2ccc(F)cc2)n1` (stereo unspecified), the Potency is reported as inconclusive: 13.1 µM [inhibitor, single point].
In the case of `CCCN(CCC)S(=O)(=O)c1ccc(NC(=O)c2cc(C(=O)OC)cc([N+](=O)[O-])c2)cc1`, the Potency is reported as active: 1.85 µM.
For `Cc1ccc2nsnc2c1S(=O)(=O)N1CCCC1C(=O)O` (stereo unspecified), the Potency was inconclusive: 1.85 µM [inhibitor, full curve].
With `CC(C)[C@H](NC(=O)c1ccc(Cl)c([N+](=O)[O-])c1)C(=O)NCc1ccc(Cl)cc1Cl` the Potency was inconclusive: 13.1 µM [inhibitor, single point].
With `CC(C)CCN(C(=O)c1csnn1)C(C(=O)NC1CCCC1)c1ccc(F)cc1` (stereo unspecified) the Potency was “inactive”.
For `CCOc1ccc(CNc2ccc(CNc3ncn[nH]3)cc2)cc1`, the Potency was inconclusive: 4.15 µM [inhibitor, partial curve, poor fit].
With `Cc1ccccc1C(=O)NNC(=O)CCC(=O)Nc1cccc(Cl)c1C` the Potency was “inactive”.
For `C(=N\Nc1nc2ccccc2[nH]1)/c1cccs1`, the Potency was active: 2.62 µM.
In the case of `CCOc1ccc(CN2CCNC(=O)C2CC(=O)NCCN2CCOC2=O)cc1` (stereo unspecified), the Potency is reported as “inactive”.
For `CCOC(=O)c1cc2c(=O)n3cccc(C)c3nc2n(C)c1=N`, the Potency was “inactive”.
For `CSc1sc(C)cc1C=O`, the Potency was inconclusive: 11.7 µM [inhibitor, single point].
